Drawing on the supplement of paper PMC10849652, this text covers log2 fold change for 33 targets.

Protein sequences, listed by entry. Tags and fused reporters are not part of them. Lines headed by an entry give the natural chain unless they say otherwise; changes in a name come on top.
UniProt Q13428: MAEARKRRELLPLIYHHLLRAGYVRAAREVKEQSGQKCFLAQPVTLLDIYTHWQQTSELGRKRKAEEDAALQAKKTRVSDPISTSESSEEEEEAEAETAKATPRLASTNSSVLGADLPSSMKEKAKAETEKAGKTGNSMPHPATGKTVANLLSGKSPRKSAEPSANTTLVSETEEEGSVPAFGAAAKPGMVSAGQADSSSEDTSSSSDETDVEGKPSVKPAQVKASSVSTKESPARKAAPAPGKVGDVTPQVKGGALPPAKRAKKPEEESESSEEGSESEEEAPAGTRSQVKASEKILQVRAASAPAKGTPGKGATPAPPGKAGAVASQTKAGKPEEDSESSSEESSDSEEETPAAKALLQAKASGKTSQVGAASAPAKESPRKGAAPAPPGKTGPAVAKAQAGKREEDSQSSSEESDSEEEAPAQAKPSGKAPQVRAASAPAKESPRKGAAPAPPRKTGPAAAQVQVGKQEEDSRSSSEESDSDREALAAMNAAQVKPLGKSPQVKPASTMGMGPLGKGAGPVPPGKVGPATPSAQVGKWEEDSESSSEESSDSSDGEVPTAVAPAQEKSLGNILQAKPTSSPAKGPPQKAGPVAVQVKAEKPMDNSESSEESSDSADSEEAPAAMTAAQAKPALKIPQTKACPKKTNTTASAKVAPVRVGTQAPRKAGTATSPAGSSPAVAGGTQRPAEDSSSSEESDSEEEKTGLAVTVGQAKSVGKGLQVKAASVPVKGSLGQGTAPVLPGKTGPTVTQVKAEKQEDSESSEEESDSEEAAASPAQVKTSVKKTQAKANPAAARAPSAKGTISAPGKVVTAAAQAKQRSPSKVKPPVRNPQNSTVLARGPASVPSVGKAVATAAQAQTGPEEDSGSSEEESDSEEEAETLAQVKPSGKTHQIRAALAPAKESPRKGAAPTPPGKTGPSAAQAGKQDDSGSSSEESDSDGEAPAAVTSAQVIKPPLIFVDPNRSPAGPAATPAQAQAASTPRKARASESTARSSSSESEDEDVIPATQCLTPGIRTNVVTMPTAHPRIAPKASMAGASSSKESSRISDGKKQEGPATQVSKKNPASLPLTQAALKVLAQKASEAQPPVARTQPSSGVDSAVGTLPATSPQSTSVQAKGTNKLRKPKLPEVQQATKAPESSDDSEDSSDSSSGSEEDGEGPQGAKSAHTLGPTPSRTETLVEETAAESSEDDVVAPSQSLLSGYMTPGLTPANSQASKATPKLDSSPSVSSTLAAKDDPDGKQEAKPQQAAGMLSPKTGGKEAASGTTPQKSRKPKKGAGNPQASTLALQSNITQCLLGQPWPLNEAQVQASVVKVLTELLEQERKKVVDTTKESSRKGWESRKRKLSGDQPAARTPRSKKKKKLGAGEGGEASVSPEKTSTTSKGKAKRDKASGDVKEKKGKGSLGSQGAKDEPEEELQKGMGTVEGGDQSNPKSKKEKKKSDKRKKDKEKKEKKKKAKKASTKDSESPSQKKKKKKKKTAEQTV
UniProt Q9Y4I5: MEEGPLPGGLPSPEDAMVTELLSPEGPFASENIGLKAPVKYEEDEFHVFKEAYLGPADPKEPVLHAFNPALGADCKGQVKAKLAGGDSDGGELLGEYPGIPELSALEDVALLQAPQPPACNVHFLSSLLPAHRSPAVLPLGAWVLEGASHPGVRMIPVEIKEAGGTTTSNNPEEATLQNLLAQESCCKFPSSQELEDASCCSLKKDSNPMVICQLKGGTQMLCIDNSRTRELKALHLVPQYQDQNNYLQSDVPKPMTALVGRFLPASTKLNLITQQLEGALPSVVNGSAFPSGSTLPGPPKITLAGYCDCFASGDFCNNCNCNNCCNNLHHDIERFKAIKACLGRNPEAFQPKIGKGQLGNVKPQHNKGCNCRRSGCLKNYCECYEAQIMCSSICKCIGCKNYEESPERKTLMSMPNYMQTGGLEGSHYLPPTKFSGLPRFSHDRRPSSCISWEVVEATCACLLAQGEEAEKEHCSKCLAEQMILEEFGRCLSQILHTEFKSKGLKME
UniProt Q86SX3: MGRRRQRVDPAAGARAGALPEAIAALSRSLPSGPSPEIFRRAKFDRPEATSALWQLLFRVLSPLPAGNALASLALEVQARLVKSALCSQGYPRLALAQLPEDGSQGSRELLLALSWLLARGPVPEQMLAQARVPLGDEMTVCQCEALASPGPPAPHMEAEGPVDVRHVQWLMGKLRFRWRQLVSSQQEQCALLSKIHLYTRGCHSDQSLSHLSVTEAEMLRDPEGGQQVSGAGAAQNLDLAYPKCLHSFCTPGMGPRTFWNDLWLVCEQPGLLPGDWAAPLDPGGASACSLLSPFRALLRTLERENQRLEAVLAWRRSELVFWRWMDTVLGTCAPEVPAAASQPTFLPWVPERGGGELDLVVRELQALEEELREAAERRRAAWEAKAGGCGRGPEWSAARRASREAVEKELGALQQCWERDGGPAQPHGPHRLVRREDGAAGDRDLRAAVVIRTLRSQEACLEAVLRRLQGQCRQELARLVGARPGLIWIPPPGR
UniProt Q6PIY7: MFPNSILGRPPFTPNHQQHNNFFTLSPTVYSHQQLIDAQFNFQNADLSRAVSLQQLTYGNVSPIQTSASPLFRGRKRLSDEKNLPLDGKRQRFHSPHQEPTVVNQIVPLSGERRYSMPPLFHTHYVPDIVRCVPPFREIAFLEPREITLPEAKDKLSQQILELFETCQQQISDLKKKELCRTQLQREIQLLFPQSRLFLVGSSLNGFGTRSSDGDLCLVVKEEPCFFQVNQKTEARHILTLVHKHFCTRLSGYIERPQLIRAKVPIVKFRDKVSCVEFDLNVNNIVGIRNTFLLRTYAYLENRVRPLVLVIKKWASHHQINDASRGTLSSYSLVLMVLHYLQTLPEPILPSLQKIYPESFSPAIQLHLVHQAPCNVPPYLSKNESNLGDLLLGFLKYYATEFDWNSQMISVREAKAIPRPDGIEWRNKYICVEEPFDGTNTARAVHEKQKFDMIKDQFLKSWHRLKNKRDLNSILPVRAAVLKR
UniProt Q7Z6L1: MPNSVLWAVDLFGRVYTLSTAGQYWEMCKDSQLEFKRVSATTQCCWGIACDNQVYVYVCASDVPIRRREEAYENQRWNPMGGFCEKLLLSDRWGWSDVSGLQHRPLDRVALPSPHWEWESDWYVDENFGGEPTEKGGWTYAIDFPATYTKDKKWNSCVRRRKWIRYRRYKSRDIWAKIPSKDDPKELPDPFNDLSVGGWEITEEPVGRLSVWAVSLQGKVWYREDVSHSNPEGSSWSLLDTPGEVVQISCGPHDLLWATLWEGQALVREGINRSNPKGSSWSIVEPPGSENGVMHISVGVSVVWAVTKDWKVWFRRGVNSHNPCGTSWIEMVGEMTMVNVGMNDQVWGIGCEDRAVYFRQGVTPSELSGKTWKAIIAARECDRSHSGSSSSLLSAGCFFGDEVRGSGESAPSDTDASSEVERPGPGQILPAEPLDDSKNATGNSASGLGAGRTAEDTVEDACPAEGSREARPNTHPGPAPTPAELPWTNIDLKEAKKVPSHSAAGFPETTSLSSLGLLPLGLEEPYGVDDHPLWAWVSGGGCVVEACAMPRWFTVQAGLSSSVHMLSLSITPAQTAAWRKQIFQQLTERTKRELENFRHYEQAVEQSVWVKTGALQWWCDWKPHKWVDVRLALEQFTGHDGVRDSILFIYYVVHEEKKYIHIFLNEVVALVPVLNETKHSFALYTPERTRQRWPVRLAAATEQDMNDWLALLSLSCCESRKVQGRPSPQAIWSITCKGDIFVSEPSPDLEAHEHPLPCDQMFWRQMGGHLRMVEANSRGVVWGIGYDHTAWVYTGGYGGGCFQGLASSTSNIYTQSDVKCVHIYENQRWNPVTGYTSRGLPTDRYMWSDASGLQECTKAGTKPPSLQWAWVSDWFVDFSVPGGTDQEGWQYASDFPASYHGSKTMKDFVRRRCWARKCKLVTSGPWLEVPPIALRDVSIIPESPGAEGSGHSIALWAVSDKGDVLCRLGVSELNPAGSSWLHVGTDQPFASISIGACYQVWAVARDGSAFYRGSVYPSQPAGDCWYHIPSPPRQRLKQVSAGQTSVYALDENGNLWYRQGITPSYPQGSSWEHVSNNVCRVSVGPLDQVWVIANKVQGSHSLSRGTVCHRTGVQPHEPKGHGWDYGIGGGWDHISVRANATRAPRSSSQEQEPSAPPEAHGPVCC
UniProt Q8TEA7: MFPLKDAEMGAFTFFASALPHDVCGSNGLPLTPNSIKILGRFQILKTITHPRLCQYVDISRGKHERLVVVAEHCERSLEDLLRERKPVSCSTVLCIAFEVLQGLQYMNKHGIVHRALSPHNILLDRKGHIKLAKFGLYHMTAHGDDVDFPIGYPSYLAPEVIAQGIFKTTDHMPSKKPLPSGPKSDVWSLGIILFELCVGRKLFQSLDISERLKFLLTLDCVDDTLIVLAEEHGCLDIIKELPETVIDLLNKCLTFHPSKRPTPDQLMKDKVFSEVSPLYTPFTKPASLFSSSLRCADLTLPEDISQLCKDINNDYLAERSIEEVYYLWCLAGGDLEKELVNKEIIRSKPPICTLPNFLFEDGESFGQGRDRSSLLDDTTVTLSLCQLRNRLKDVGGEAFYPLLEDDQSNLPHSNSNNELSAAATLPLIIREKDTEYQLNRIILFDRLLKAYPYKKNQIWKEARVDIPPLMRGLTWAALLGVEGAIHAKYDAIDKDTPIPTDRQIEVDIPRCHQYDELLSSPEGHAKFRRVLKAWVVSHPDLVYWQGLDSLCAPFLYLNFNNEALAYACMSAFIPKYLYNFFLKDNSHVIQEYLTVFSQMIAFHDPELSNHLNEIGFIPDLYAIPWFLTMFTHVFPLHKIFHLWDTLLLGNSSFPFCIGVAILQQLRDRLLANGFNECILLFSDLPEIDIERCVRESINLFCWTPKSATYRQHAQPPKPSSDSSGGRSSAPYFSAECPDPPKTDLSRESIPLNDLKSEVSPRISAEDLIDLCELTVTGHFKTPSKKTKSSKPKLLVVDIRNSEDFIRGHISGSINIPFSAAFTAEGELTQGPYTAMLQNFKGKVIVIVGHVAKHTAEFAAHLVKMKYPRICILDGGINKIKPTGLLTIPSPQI
UniProt Q96QE5: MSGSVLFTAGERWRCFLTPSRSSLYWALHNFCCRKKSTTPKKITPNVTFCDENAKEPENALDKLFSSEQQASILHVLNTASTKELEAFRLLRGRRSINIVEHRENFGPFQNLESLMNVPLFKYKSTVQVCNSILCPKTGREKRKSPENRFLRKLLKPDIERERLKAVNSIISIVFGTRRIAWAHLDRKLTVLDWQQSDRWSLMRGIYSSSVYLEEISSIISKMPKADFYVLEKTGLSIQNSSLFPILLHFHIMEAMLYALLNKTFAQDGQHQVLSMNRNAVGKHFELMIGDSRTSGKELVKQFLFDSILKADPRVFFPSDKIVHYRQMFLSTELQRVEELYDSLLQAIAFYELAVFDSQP
UniProt Q9UI15: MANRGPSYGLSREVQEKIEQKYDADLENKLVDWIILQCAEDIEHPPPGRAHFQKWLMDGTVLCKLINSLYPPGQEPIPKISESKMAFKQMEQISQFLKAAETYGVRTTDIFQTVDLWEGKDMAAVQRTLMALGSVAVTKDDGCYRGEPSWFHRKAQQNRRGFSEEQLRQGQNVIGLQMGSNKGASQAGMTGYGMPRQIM
UniProt Q8N4U5: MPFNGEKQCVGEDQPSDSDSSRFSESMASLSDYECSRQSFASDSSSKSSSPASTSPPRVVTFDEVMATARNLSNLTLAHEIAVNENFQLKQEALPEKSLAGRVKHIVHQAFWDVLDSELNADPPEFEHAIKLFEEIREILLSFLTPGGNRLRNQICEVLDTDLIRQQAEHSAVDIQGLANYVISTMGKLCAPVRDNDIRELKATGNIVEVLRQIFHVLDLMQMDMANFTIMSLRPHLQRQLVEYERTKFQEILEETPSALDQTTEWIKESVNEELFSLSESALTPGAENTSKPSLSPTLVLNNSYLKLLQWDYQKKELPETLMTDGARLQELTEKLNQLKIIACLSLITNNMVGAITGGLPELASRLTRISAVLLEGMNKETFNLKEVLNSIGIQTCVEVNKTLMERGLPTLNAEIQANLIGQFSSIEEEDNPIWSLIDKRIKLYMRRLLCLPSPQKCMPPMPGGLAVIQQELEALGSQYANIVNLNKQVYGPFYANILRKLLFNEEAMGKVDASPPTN
UniProt Q7L2K0: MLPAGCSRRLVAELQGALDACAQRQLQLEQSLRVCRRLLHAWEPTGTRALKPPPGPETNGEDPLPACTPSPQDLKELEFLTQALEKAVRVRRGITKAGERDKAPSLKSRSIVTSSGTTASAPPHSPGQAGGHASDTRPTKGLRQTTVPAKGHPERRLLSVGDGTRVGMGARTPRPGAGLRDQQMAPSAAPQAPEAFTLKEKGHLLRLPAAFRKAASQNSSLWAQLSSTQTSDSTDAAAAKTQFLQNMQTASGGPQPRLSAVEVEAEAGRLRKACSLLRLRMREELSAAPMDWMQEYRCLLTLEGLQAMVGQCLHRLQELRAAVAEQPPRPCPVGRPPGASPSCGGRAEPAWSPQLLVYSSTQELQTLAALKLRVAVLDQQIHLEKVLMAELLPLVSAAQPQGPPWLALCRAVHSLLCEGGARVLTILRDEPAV

The list shows a part of the results.

Compound in one assay: Cc1sc2c(c1C)C(c1ccc(Cl)cc1)=N[C@@H](CC(=O)OC(C)(C)C)c1nnc(C)n1-2
Kind of assay: log2 fold change, soluble protein after heating vs DMSO (PISA); higher = thermal stabilisation; K562 lysate, 10 uM; active = over 0.2 and 3.5 SD of the protein, either way, in both replicates (recomputed). The gist of the method:
(§1)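 A 30 min treatment with 10 μM compound was applied to crude K562 extract at 1 mg/mL protein in PBS pH 7.4 with 1 mM MgCl2. Heating for 3 min spanned 48°C-58°C, after which aliquots were pooled, adjusted to 0.5% NP-40 at 4°C and spun at 21,000xg for 90 min. TMTpro 16plex LC-MS/MS of the supernatant, with channel sums equalised, gave values recorded as log-two fold change in thermal stability against solvent controls, from duplicates.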
Consider TBC1D12 (UniProt O60347), for which the log2 fold change was inactive: -0.063.
With TCF20 (UniProt Q9UGU0), the log2 fold change is inactive: -0.263.
Same read-out and setting: then TCOF1 isoform 6 (UniProt Q13428), with inactive: 0.096; and TCEAL8 (UniProt Q8IYN2), with inactive: -0.012.
Still for that read-out and setting: then TASOR (UniProt Q9UK61), with inactive: -0.028.
On the same count and under the same terms, then TESMIN (UniProt Q9Y4I5), with inactive: -0.301.
TDRD15 (UniProt B5MCY1): the log2 fold change was inactive: -0.124.
Still for that read-out and setting: for TBC1D10A (UniProt Q9BXI6) the value was inactive: 0.074; for TEDC1 (UniProt Q86SX3), inactive: 0.058; for TEAD2 isoform 4 (UniProt Q15562), inactive: 0.072.
Take TBC1D25 (UniProt Q3MII6): the log2 fold change was inactive: -0.043.
On the same count and under the same terms, for TCF4 (UniProt P15884) the value was inactive: 0.047.
The same measure, in the same setting: then TENT2 (UniProt Q6PIY7), with inactive: 0.316.
The same measure, in the same setting: for TECPR1 isoform 4 (UniProt Q7Z6L1) the value was inactive: -0.217; for TBCK (UniProt Q8TEA7), inactive: -0.005; for TBP (UniProt P20226), inactive: -0.151.
Turning to TANC2 isoform 2 (UniProt Q9HCD6), the log2 fold change was inactive: 0.093.
Same read-out and setting: then TAF8, A0A0A0MRR3, with inactive: -0.04.
Still for that read-out and setting: for TEAD3 (UniProt Q99594) the value was inactive: -0.002; for TEFM (UniProt Q96QE5), inactive: 0.023.

Compound in another assay: c1ccc([C@@H]2C[C@H]2NC2CCNCC2)cc1
The description is as above. The gist of the method:
as §1
Take TBC1D12 (UniProt O60347): the log2 fold change is inactive: 0.069.
The same measure, in the same setting: for TCF20 (UniProt Q9UGU0) the value was inactive: -0.059; for TAGLN3 (UniProt Q9UI15), inactive: -0.345.
The same measure, in the same setting: then TAZ (UniProt Q16635), with inactive: -0.013; and TCTN3 (UniProt Q6NUS6), with inactive: -0.006; and TESMIN (UniProt Q9Y4I5), with inactive: 0.04.
As to TGDS (UniProt O95455), the log2 fold change was inactive: -0.022.
On the same count and under the same terms, then TBXA2R (UniProt P21731), with inactive: 0.085; and TBC1D10A (UniProt Q9BXI6), with inactive: -0.005; and TBCCD1 (UniProt Q9NVR7), with inactive: -0.011.
Same read-out and setting: for TBC1D25 (UniProt Q3MII6) the value was inactive: 0.186; for TCOF1 isoform 3 (UniProt Q13428), inactive: 0.036; for TCN1 (UniProt P20061), inactive: -0.045.
On the same count and under the same terms, for TC2N (UniProt Q8N9U0) the value was inactive: 0.088; for TCF4 (UniProt P15884), inactive: 0.091; for TECPR1 isoform 4 (UniProt Q7Z6L1), inactive: 0.009.
On to TCP11L2 (UniProt Q8N4U5), for which the log2 fold change is inactive: 0.028.
Still for that read-out and setting: for TBCK (UniProt Q8TEA7) the value was inactive: -0.126.
Same read-out and setting: then TBP (UniProt P20226), with inactive: -0.089.
The same measure, in the same setting: for TANC2 isoform 2 (UniProt Q9HCD6) the value was inactive: 0.081; for TCF3 (UniProt X6REB3), inactive: -0.25.
With TENM4 (UniProt Q6N022), the log2 fold change is inactive: 0.137.
On the same count and under the same terms, then TEFM (UniProt Q96QE5), with inactive: 0.133; and TEDC2 (UniProt Q7L2K0), with inactive: 0.039.
